The assay concerns the target 0N4R wild-type human tau (human) (UniProt P10636). Put plainly: co-IP; 500 ug lysate of stable HT22 cells (150 mM NaCl, 50 mM Tris-HCl, 1 mM EDTA, 1 mM EGTA, 0.5% NP-40, pH 7.4); rabbit anti-tau (DAKO tau) or rabbit IgG control overnight at 4°C, protein A/G magnetic agarose beads 6 h at 4°C; blot probed with mouse anti-FKBP8.

Protein sequences, listed by entry. Tags and fused reporters are not part of them. Lines headed by an entry give the natural chain unless they say otherwise; changes in a name come on top. Chains listed by the source or under a name are the forms on record and can include a tag or linker.
0N4R wild-type human tau (P10636, form named): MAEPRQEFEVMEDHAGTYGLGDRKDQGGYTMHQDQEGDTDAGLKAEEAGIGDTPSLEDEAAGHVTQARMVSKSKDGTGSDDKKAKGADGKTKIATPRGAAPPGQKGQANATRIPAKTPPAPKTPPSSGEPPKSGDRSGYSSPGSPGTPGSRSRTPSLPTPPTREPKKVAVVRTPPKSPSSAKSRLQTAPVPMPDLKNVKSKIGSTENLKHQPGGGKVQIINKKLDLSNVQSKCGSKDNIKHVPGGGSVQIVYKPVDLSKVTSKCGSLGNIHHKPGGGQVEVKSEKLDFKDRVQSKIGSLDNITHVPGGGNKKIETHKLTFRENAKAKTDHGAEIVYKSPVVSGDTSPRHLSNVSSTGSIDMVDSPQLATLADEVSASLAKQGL
UniProt O35465: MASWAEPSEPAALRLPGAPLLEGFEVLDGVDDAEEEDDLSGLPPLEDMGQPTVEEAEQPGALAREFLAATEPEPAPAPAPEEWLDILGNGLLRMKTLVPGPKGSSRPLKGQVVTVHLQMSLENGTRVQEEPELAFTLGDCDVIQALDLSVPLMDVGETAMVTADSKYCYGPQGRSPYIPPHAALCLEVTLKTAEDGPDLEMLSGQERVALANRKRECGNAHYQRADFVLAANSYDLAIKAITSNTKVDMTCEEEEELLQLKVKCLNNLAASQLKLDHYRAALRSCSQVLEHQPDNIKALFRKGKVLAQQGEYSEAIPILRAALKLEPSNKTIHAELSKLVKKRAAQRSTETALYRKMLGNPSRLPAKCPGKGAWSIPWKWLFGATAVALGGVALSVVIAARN

No constants are given. Whether binding was seen depends on the method and setting. In cells and extracts the contact can be indirect. Some entries that bind do so weakly or less than the wild type.

For “FK506-binding protein prolyl isomerase 8 (FKBP8/FKBP38) (from UniProt O35465 1-402)”, the binding entry is on record as “binds”.
